These are yes or no findings as the source states them, for the method shown. Binding seen in cells or lysates may run through a third protein. Some binding calls cover weakened binding; strength is not graded here.

Protein sequences, listed by entry. Tags and fused reporters are not part of them. Residues count along the entry.
UniProt O14763, residues 56-440: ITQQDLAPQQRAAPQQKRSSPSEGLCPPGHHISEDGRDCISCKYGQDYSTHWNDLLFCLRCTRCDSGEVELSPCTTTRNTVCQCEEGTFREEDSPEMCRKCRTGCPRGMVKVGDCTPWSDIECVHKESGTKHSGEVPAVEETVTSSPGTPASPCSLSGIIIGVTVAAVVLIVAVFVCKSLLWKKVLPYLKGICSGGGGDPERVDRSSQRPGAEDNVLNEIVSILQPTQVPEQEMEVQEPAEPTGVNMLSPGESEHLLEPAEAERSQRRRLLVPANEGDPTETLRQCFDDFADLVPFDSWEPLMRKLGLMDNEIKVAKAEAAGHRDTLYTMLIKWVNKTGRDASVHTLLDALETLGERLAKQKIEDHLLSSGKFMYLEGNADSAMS
UniProt Q13158: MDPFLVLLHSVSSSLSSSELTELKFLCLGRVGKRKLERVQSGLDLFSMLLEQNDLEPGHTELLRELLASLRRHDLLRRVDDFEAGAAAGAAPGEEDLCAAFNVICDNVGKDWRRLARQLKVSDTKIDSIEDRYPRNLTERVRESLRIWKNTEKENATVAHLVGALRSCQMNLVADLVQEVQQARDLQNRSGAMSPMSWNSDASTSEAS

In this experiment the target is TRAIL-R2 (human (endogenous in OE33, HT29, HCT116)) (UniProt O14763). Kind of experiment: co-IP; TRAIL-R2 DISC IP: activating TRAIL-R2 antibody AMG655 (Conatumumab) coupled to Dynabeads; cells treated for 1 h to induce the DISC; OE33 (control shRNA or stable Itch knockdown), HT29 and HCT116 (control or ITCH siRNA); Western blot.

With FADD (from UniProt Q13158 1-208), the binding entry is recorded as “binds”.

These data come from article PMC10786908.
